# From the supplement of paper PMC8728848
# This is one part of the list.
# B1: CM2 (Cordyceps militaris) (protein)
# chain: MEIAEQNVGKSCAIVNLIPPKEGSNIWTAKQVTIARNLPPNRGTGRHQIDWSFGPVKVTGYVDTTNWEIGVTVSIMGIDLGTVYGNLRDGVVLNVDLFLAKGQVRFYLKNGNEVWVHLSVEIRFDGKFEGDYKIITV
# Legend:
# Experiment in all cases: glycan array binding signal (z-score within array); higher = stronger binding
# Conditions in all cases: glycan notation: IUPAC condensed, linker removed
# Fuc(a1-3)GlcNAc = target: Fuc(a1-3)GlcNAc
# Method in brief: (§1)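 Negative Z-scores can be read as non-binding. The Z-score is calculated within each array and then averaged across arrays of one protein sequence at different concentrations or buffers and across linkers. Arrays, 3228 in all, were curated from the Consortium for Functional Glycomics database and kept only where the protein sequence was available.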
# [1] = target: Fuc(a1-3)[Gal(b1-4)]Glc6S
# Method in brief: as §1
# [2] = target: Fuc(a1-3)[Gal(b1-4)]GlcNAc
# Method in brief: as §1
# [3] = target: Fuc(a1-3)[Gal(b1-4)]GlcNAc(b1-2)Man
# Method in brief: as §1
# [4] = target: Fuc(a1-3)[Gal(b1-4)]GlcNAc(b1-2)Man(a1-3)[Fuc(a1-3)[Gal(b1-4)]GlcNAc(b1-2)Man(a1-6)]Man(b1-4)GlcNAc(b1-4)GlcNAc
# Method in brief: as §1
# [5] = target: Fuc(a1-3)[Gal(b1-4)]GlcNAc(b1-2)Man(a1-3)[Fuc(a1-3)[Gal(b1-4)]GlcNAc(b1-2)Man(a1-6)]Man(b1-4)GlcNAc(b1-4)[Fuc(a1-6)]GlcNAc
# Method in brief: as §1
# [6] = target: Fuc(a1-3)[Gal(b1-4)]GlcNAc(b1-3)Gal(b1-3)[Fuc(a1-4)]GlcNAc
# Method in brief: as §1
# [7] = target: Fuc(a1-3)[Gal(b1-4)]GlcNAc(b1-3)Gal(b1-4)[Fuc(a1-3)]GlcNAc
# Method in brief: as §1
# [8] = target: Fuc(a1-3)[Gal(b1-4)]GlcNAc(b1-3)Gal(b1-4)[Fuc(a1-3)]GlcNAc(b1-3)Gal(b1-4)[Fuc(a1-3)]GlcNAc
# Method in brief: as §1
# [9] = target: Fuc(a1-3)[Gal(b1-4)]GlcNAc(b1-3)GalNAc
# Method in brief: as §1
# [10] = target: Fuc(a1-3)[Gal(b1-4)]GlcNAc(b1-6)GalNAc
# Method in brief: as §1
# [11] = target: Fuc(a1-3)[Gal(b1-4)]GlcNAc(b1-6)[Gal(b1-3)GlcNAc(b1-3)]Gal(b1-4)Glc
# Method in brief: as §1
# [12] = target: Fuc(a1-3)[Gal(b1-4)]GlcNAc6S
# Method in brief: as §1
# [13] = target: Fuc(a1-3)[Gal3S(b1-4)]Glc
# Method in brief: as §1
# [14] = target: Fuc(a1-3)[Gal3S(b1-4)]GlcNAc
# Method in brief: as §1
# [15] = target: Fuc(a1-3)[Gal3S(b1-4)]GlcNAc6S
# Method in brief: as §1
# [16] = target: Fuc(a1-3)[GalNAc(b1-4)]GlcNAc
# Method in brief: as §1
# [17] = target: Fuc(a1-3)[GalNAc(b1-4)]GlcNAc6S
# Method in brief: as §1
# Fuc(a1-4)GlcNAc = target: Fuc(a1-4)GlcNAc
# Method in brief: as §1
# Fuc(b1-3)GlcNAc = target: Fuc(b1-3)GlcNAc
# Method in brief: as §1
# Gal(a1-2)Gal = target: Gal(a1-2)Gal
# Method in brief: as §1
# Gal(a1-3)Gal = target: Gal(a1-3)Gal
# Method in brief: as §1
# Gal(a1-3)Gal(b1-3)GlcNAc = target: Gal(a1-3)Gal(b1-3)GlcNAc
# Method in brief: as §1
# [18] = target: Gal(a1-3)Gal(b1-3)GlcNAc(b1-2)Man
# Method in brief: as §1
# [19] = target: Gal(a1-3)Gal(b1-3)GlcNAc(b1-2)Man(a1-3)[Gal(a1-3)Gal(b1-3)GlcNAc(b1-2)Man(a1-6)]Man(b1-4)GlcNAc(b1-4)GlcNAc
# Method in brief: as §1
# [20] = target: Gal(a1-3)Gal(b1-3)GlcNAc(b1-3)GalNAc
# Method in brief: as §1
# [21] = target: Gal(a1-3)Gal(b1-3)GlcNAc(b1-6)GalNAc
# Method in brief: as §1
# [22] = target: Gal(a1-3)Gal(b1-3)[Fuc(a1-4)]GlcNAc(b1-2)Man(a1-3)[Gal(a1-3)Gal(b1-3)[Fuc(a1-4)]GlcNAc(b1-2)Man(a1-6)]Man(b1-4)GlcNAc(b1-4)GlcNAc
# Method in brief: as §1
# Gal(a1-3)Gal(b1-4)Glc = target: Gal(a1-3)Gal(b1-4)Glc
# Method in brief: as §1
# Gal(a1-3)Gal(b1-4)GlcNAc = target: Gal(a1-3)Gal(b1-4)GlcNAc
# Method in brief: as §1
# [23] = target: Gal(a1-3)Gal(b1-4)GlcNAc(b1-2)Man
# Method in brief: as §1
# [24] = target: Gal(a1-3)Gal(b1-4)GlcNAc(b1-2)Man(a1-3)[Gal(a1-3)Gal(b1-4)GlcNAc(b1-2)Man(a1-6)]Man(b1-4)GlcNAc(b1-4)GlcNAc
# Method in brief: as §1
# [25] = target: Gal(a1-3)Gal(b1-4)GlcNAc(b1-3)GalNAc
# Method in brief: as §1
# [26] = target: Gal(a1-3)Gal(b1-4)GlcNAc(b1-6)GalNAc
# Method in brief: as §1
# [27] = target: Gal(a1-3)Gal(b1-4)[Fuc(a1-3)]GlcNAc
# Method in brief: as §1
# [28] = target: Gal(a1-3)Gal(b1-4)[Fuc(a1-3)]GlcNAc(b1-2)Man(a1-3)[Gal(a1-3)Gal(b1-4)[Fuc(a1-3)]GlcNAc(b1-2)Man(a1-6)]Man(b1-4)GlcNAc(b1-4)GlcNAc
# Method in brief: as §1
# Gal(a1-3)GalNAc = target: Gal(a1-3)GalNAc
# Method in brief: as §1
# [29] = target: Gal(a1-3)[Gal(a1-4)]Gal(b1-4)GlcNAc
# Method in brief: as §1
# [30] = target: Gal(a1-4)Gal(b1-3)GlcNAc(b1-2)Man(a1-3)[Gal(a1-4)Gal(b1-3)GlcNAc(b1-2)Man(a1-6)]Man(b1-4)GlcNAc(b1-4)GlcNAc
# Method in brief: as §1
# Gal(a1-4)Gal(b1-4)Glc = target: Gal(a1-4)Gal(b1-4)Glc
# Method in brief: as §1
# Gal(a1-4)Gal(b1-4)GlcNAc = target: Gal(a1-4)Gal(b1-4)GlcNAc
# Method in brief: as §1
# [31] = target: Gal(a1-4)Gal(b1-4)GlcNAc(b1-2)Man(a1-3)[Gal(a1-4)Gal(b1-4)GlcNAc(b1-2)Man(a1-6)]Man(b1-4)GlcNAc(b1-4)GlcNAc
# Method in brief: as §1
# [32] = target: Gal(a1-4)Gal(b1-4)GlcNAc(b1-3)Gal(b1-4)Glc
# Method in brief: as §1
# Gal(a1-4)GlcNAc = target: Gal(a1-4)GlcNAc
# Method in brief: as §1
# Gal(a1-6)Glc = target: Gal(a1-6)Glc
# Method in brief: as §1
binder,measurement,setting,value
B1,glycan array binding signal (z-score),Fuc(a1-3)GlcNAc,-0.826
same,glycan array binding signal (z-score),[1],-1.94
same,glycan array binding signal (z-score),[2],0.057
same,glycan array binding signal (z-score),[3],-1.22
same,glycan array binding signal (z-score),[4],-1.48
same,glycan array binding signal (z-score),[5],1.05
same,glycan array binding signal (z-score),[6],0.702
same,glycan array binding signal (z-score),[7],-0.383
same,glycan array binding signal (z-score),[8],-0.193
same,glycan array binding signal (z-score),[9],-0.54
same,glycan array binding signal (z-score),[10],-0.695
same,glycan array binding signal (z-score),[11],-0.052
same,glycan array binding signal (z-score),[12],0.992
same,glycan array binding signal (z-score),[13],-0.569
same,glycan array binding signal (z-score),[14],-0.3
same,glycan array binding signal (z-score),[15],-1.04
same,glycan array binding signal (z-score),[16],0.407
same,glycan array binding signal (z-score),[17],-0.502
same,glycan array binding signal (z-score),Fuc(a1-4)GlcNAc,1.23
same,glycan array binding signal (z-score),Fuc(b1-3)GlcNAc,-1.33
same,glycan array binding signal (z-score),Gal(a1-2)Gal,-0.219
same,glycan array binding signal (z-score),Gal(a1-3)Gal,-0.048
same,glycan array binding signal (z-score),Gal(a1-3)Gal(b1-3)GlcNAc,0.474
same,glycan array binding signal (z-score),[18],-0.692
same,glycan array binding signal (z-score),[19],-0.635
same,glycan array binding signal (z-score),[20],-1.36
same,glycan array binding signal (z-score),[21],-0.74
same,glycan array binding signal (z-score),[22],1.32
same,glycan array binding signal (z-score),Gal(a1-3)Gal(b1-4)Glc,1.11
same,glycan array binding signal (z-score),Gal(a1-3)Gal(b1-4)GlcNAc,0.413
same,glycan array binding signal (z-score),[23],-0.924
same,glycan array binding signal (z-score),[24],0.458
same,glycan array binding signal (z-score),[25],0.113
same,glycan array binding signal (z-score),[26],-0.847
same,glycan array binding signal (z-score),[27],-0.498
same,glycan array binding signal (z-score),[28],-0.632
same,glycan array binding signal (z-score),Gal(a1-3)GalNAc,-0.215
same,glycan array binding signal (z-score),[29],-1.05
same,glycan array binding signal (z-score),[30],0.151
same,glycan array binding signal (z-score),Gal(a1-4)Gal(b1-4)Glc,0.842
same,glycan array binding signal (z-score),Gal(a1-4)Gal(b1-4)GlcNAc,-0.275
same,glycan array binding signal (z-score),[31],0.617
same,glycan array binding signal (z-score),[32],0.58
same,glycan array binding signal (z-score),Gal(a1-4)GlcNAc,-1.74
same,glycan array binding signal (z-score),Gal(a1-6)Glc,-0.883

# Four entries from above in another layout:
binder | measurement | setting | value
B1 | glycan array binding signal (z-score) | [1] | -1.94
same | glycan array binding signal (z-score) | [6] | 0.702
same | glycan array binding signal (z-score) | [14] | -0.3
same | glycan array binding signal (z-score) | [23] | -0.924
